# Results as given in the supplement of paper PMC8728848.
# Some of the results follow.
# B1: GS7807G-bfa-506-18-506 (Bacteroides fragilis) (protein)
# chain: ASCDKFDEINTDPDATTKVTSSLLATGLLLDITSSSASKSFIYDELLAKQMAWGESMEDYQYNVFGRSGFGGYTTLINAQKMVESVSDDNVNAYDGLAHFIKAYKIFYMSMEMGDLPYEEALQGELGLVRPKYNTQKEVMNFILSDLETAYELFSTAKDFDGDPILGGSISKWKKATTAFQLKVLMHLSKKESDADLKVKERFARIVASGSLMESNEDNLQMKYADKANTVYPFHNTNTKHAGYAMLSTMLIDKFKATGDIRMFYYAKPAKAKLNEGVTADSWDAYIGTDPSLPFEQIEKAYATEQYSGFNARYTDYPSGEPVVRLGYAEQNFILAEAAVRGWISGDASAYYKKAIRAHMEFIASNTPDEEVYHHGHPITEEAIAAFLETPAIQLSGEKEEDIEKILTQRYLASFMQHPYDVYYDYRRTGYPVLPINPATNRNTMNDRLPMRWMYPKSESDYNLEHQNEALERQFGGVDDVNKLMWILQ
# Tests used:
# Experiment in all cases: glycan array binding signal (z-score within array); higher = stronger binding
# Settings in all cases: glycan notation: IUPAC condensed, linker removed
# [1] = molecular target: Fuc(a1-2)[GalNAc(a1-3)]Gal(b1-3)GlcNAc(b1-6)GalNAc
# Procedure, shortened: (§1)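 Glycan array binding is given as a within-array Z-score, which can be read as non-binding when negative. The arrays, 3228 of them, came from the Consortium for Functional Glycomics database and were retained only where the protein sequence was available. Z-scores were averaged across arrays of the same protein sequence at different concentrations or buffers and across linkers.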
# [2] = molecular target: Fuc(a1-2)[GalNAc(a1-3)]Gal(b1-4)Glc
# Procedure, shortened: as §1
# [3] = molecular target: Fuc(a1-2)[GalNAc(a1-3)]Gal(b1-4)GlcNAc
# Procedure, shortened: as §1
# [4] = molecular target: Fuc(a1-2)[GalNAc(a1-3)]Gal(b1-4)GlcNAc(b1-2)Man
# Procedure, shortened: as §1
# [5] = molecular target: Fuc(a1-2)[GalNAc(a1-3)]Gal(b1-4)GlcNAc(b1-2)Man(a1-3)[Fuc(a1-2)[GalNAc(a1-3)]Gal(b1-4)GlcNAc(b1-2)Man(a1-6)]Man(b1-4)GlcNAc(b1-4)GlcNAc
# Procedure, shortened: as §1
# [6] = molecular target: Fuc(a1-2)[GalNAc(a1-3)]Gal(b1-4)GlcNAc(b1-2)Man(a1-3)[Fuc(a1-2)[GalNAc(a1-3)]Gal(b1-4)GlcNAc(b1-2)Man(a1-6)]Man(b1-4)GlcNAc(b1-4)[Fuc(a1-6)]GlcNAc
# Procedure, shortened: as §1
# [7] = molecular target: Fuc(a1-2)[GalNAc(a1-3)]Gal(b1-4)GlcNAc(b1-3)Gal(b1-4)GlcNAc
# Procedure, shortened: as §1
# [8] = molecular target: Fuc(a1-2)[GalNAc(a1-3)]Gal(b1-4)GlcNAc(b1-3)Gal(b1-4)GlcNAc(b1-3)Gal(b1-4)GlcNAc
# Procedure, shortened: as §1
# [9] = molecular target: Fuc(a1-2)[GalNAc(a1-3)]Gal(b1-4)GlcNAc(b1-3)GalNAc
# Procedure, shortened: as §1
# [10] = molecular target: Fuc(a1-2)[GalNAc(a1-3)]Gal(b1-4)GlcNAc(b1-3)[Fuc(a1-2)[GalNAc(a1-3)]Gal(b1-4)GlcNAc(b1-6)]GalNAc
# Procedure, shortened: as §1
# [11] = molecular target: Fuc(a1-2)[GalNAc(a1-3)]Gal(b1-4)GlcNAc(b1-6)GalNAc
# Procedure, shortened: as §1
# [12] = molecular target: Fuc(a1-2)[GalNAc(a1-3)]Gal(b1-4)[Fuc(a1-3)]GlcNAc
# Procedure, shortened: as §1
# [13] = molecular target: Fuc(a1-2)[GalNAc(a1-3)]Gal(b1-4)[Fuc(a1-3)]GlcNAc(b1-3)GalNAc
# Procedure, shortened: as §1
# [14] = molecular target: Fuc(a1-2)[GalNAc(a1-4)]Gal(b1-4)GlcNAc
# Procedure, shortened: as §1
# [15] = molecular target: Fuc(a1-2)[GalNAc(b1-3)]Gal
# Procedure, shortened: as §1
# [16] = molecular target: Fuc(a1-3)GlcNAc
# Procedure, shortened: as §1
# [17] = molecular target: Fuc(a1-3)[Gal(b1-4)]Glc6S
# Procedure, shortened: as §1
# [18] = molecular target: Fuc(a1-3)[Gal(b1-4)]GlcNAc
# Procedure, shortened: as §1
# [19] = molecular target: Fuc(a1-3)[Gal(b1-4)]GlcNAc(b1-2)Man
# Procedure, shortened: as §1
# [20] = molecular target: Fuc(a1-3)[Gal(b1-4)]GlcNAc(b1-2)Man(a1-3)[Fuc(a1-3)[Gal(b1-4)]GlcNAc(b1-2)Man(a1-6)]Man(b1-4)GlcNAc(b1-4)GlcNAc
# Procedure, shortened: as §1
# [21] = molecular target: Fuc(a1-3)[Gal(b1-4)]GlcNAc(b1-2)Man(a1-3)[Fuc(a1-3)[Gal(b1-4)]GlcNAc(b1-2)Man(a1-6)]Man(b1-4)GlcNAc(b1-4)[Fuc(a1-6)]GlcNAc
# Procedure, shortened: as §1
# [22] = molecular target: Fuc(a1-3)[Gal(b1-4)]GlcNAc(b1-3)Gal(b1-3)[Fuc(a1-4)]GlcNAc
# Procedure, shortened: as §1
# [23] = molecular target: Fuc(a1-3)[Gal(b1-4)]GlcNAc(b1-3)Gal(b1-4)[Fuc(a1-3)]GlcNAc
# Procedure, shortened: as §1
# [24] = molecular target: Fuc(a1-3)[Gal(b1-4)]GlcNAc(b1-3)Gal(b1-4)[Fuc(a1-3)]GlcNAc(b1-3)Gal(b1-4)[Fuc(a1-3)]GlcNAc
# Procedure, shortened: as §1
# [25] = molecular target: Fuc(a1-3)[Gal(b1-4)]GlcNAc(b1-3)GalNAc
# Procedure, shortened: as §1
# [26] = molecular target: Fuc(a1-3)[Gal(b1-4)]GlcNAc(b1-6)GalNAc
# Procedure, shortened: as §1
# [27] = molecular target: Fuc(a1-3)[Gal(b1-4)]GlcNAc(b1-6)[Gal(b1-3)GlcNAc(b1-3)]Gal(b1-4)Glc
# Procedure, shortened: as §1
# [28] = molecular target: Fuc(a1-3)[Gal(b1-4)]GlcNAc6S
# Procedure, shortened: as §1
# [29] = molecular target: Fuc(a1-3)[Gal3S(b1-4)]Glc
# Procedure, shortened: as §1
# [30] = molecular target: Fuc(a1-3)[Gal3S(b1-4)]GlcNAc
# Procedure, shortened: as §1
# [31] = molecular target: Fuc(a1-3)[Gal3S(b1-4)]GlcNAc6S
# Procedure, shortened: as §1
# [32] = molecular target: Fuc(a1-3)[GalNAc(b1-4)]GlcNAc
# Procedure, shortened: as §1
# [33] = molecular target: Fuc(a1-3)[GalNAc(b1-4)]GlcNAc6S
# Procedure, shortened: as §1
# [34] = molecular target: Fuc(a1-4)GlcNAc
# Procedure, shortened: as §1
# [35] = molecular target: Fuc(b1-3)GlcNAc
# Procedure, shortened: as §1
# [36] = molecular target: Gal(a1-2)Gal
# Procedure, shortened: as §1
# [37] = molecular target: Gal(a1-3)Gal
# Procedure, shortened: as §1
binder,measurement,setting,value
B1,glycan array binding signal (z-score),[1],-0.032
same,glycan array binding signal (z-score),[2],-0.693
same,glycan array binding signal (z-score),[3],-0.72
same,glycan array binding signal (z-score),[4],-0.111
same,glycan array binding signal (z-score),[5],1.68
same,glycan array binding signal (z-score),[6],-0.285
same,glycan array binding signal (z-score),[7],-0.624
same,glycan array binding signal (z-score),[8],-0.91
same,glycan array binding signal (z-score),[9],-0.487
same,glycan array binding signal (z-score),[10],-0.824
same,glycan array binding signal (z-score),[11],0.383
same,glycan array binding signal (z-score),[12],1.94
same,glycan array binding signal (z-score),[13],1.6
same,glycan array binding signal (z-score),[14],0.464
same,glycan array binding signal (z-score),[15],0.922
same,glycan array binding signal (z-score),[16],-0.665
same,glycan array binding signal (z-score),[17],-0.004
same,glycan array binding signal (z-score),[18],-0.4
same,glycan array binding signal (z-score),[19],0.315
same,glycan array binding signal (z-score),[20],0.726
same,glycan array binding signal (z-score),[21],1.51
same,glycan array binding signal (z-score),[22],-0.716
same,glycan array binding signal (z-score),[23],-0.387
same,glycan array binding signal (z-score),[24],-0.566
same,glycan array binding signal (z-score),[25],-0.099
same,glycan array binding signal (z-score),[26],0.935
same,glycan array binding signal (z-score),[27],0.414
same,glycan array binding signal (z-score),[28],-0.287
same,glycan array binding signal (z-score),[29],-0.945
same,glycan array binding signal (z-score),[30],0.195
same,glycan array binding signal (z-score),[31],0.069
same,glycan array binding signal (z-score),[32],0.279
same,glycan array binding signal (z-score),[33],0.588
same,glycan array binding signal (z-score),[34],-0.751
same,glycan array binding signal (z-score),[35],-0.561
same,glycan array binding signal (z-score),[36],-0.863
same,glycan array binding signal (z-score),[37],-0.571

# Reprinted at random: 3 records from the list
binder,measurement,setting,value
B1,glycan array binding signal (z-score),[17],-0.004
same,glycan array binding signal (z-score),[15],0.922
same,glycan array binding signal (z-score),[9],-0.487
